This is one part of the list. Small differences around the control level are noise.
Compound: CN[C@@H]1C[C@H]2O[C@@](C)([C@@H]1OC)n1c3ccccc3c3c4c(c5c6ccccc6n2c5c31)C(=O)NC4 [staurosporine]
Experiment: log2 fold change of tryptic peptide abundance, ligand vs vehicle (limited proteolysis) (log2 ratio); higher = more trypsin-susceptible (destabilized)
Details: ligand concentration: 20 uM; sample: mouse liver crude lysate; replicate design: treated separately

The chains behind the UniProt entries cited, without tags or fusion partners. Where a name states a change or a piece, a line headed by the entry shows the natural chain unless it says otherwise.
UniProt Q80TN7: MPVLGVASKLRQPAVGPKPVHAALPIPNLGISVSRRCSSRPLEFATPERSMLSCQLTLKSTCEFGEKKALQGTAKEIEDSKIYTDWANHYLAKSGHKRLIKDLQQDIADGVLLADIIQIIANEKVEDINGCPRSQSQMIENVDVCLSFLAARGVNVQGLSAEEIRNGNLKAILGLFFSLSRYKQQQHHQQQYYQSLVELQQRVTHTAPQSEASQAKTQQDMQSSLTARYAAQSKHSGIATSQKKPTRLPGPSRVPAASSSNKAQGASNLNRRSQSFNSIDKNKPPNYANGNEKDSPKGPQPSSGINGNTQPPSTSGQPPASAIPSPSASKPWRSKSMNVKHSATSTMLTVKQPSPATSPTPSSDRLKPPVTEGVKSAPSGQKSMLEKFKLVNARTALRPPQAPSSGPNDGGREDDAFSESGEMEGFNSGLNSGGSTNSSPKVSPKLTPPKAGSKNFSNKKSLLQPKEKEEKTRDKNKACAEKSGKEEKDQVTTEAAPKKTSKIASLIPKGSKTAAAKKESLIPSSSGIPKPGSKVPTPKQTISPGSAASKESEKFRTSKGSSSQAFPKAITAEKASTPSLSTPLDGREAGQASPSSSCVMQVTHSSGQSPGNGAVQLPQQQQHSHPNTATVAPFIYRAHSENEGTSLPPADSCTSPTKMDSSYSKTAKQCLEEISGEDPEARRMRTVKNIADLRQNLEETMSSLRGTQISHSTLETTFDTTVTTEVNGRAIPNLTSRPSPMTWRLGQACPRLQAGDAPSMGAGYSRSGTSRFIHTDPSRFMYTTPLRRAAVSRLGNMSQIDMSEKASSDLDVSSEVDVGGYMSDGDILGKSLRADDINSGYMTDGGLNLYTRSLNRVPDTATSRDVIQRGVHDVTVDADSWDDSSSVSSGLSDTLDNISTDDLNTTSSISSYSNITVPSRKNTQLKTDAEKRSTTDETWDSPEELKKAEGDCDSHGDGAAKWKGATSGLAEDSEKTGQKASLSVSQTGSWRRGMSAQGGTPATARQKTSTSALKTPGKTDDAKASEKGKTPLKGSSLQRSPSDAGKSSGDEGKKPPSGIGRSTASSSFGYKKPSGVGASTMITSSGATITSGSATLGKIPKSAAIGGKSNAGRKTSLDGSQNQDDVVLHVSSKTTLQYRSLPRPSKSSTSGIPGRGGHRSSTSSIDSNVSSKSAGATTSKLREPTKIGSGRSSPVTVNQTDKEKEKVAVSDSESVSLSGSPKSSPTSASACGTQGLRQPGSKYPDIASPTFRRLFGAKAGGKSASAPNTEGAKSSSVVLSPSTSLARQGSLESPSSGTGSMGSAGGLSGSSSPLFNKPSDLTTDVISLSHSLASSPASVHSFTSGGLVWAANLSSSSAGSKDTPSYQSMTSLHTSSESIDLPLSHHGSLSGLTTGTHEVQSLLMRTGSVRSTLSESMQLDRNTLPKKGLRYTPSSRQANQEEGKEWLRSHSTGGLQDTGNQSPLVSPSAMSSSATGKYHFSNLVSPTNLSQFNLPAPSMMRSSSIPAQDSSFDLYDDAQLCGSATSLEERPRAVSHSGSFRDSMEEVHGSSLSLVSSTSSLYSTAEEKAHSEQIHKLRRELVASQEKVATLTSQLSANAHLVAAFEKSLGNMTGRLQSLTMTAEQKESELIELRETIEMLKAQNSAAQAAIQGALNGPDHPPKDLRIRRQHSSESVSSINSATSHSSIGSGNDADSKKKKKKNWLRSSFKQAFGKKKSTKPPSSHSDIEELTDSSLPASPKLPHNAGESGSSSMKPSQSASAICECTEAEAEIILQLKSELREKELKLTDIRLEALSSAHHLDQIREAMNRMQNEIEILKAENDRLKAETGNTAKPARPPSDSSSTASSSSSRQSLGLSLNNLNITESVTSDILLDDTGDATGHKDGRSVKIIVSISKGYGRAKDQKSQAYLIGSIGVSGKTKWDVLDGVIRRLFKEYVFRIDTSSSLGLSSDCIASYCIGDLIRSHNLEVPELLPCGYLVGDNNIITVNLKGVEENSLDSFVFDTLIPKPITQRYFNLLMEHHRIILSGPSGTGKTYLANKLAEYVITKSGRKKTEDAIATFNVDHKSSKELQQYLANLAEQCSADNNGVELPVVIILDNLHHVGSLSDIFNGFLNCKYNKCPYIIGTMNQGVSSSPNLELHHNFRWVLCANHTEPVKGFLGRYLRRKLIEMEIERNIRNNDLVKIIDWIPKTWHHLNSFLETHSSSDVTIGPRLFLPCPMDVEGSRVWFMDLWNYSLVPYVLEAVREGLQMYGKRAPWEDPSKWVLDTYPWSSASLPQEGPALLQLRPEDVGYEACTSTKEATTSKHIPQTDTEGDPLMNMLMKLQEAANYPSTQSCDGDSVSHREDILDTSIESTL
UniProt Q6ZWX6, whole entry: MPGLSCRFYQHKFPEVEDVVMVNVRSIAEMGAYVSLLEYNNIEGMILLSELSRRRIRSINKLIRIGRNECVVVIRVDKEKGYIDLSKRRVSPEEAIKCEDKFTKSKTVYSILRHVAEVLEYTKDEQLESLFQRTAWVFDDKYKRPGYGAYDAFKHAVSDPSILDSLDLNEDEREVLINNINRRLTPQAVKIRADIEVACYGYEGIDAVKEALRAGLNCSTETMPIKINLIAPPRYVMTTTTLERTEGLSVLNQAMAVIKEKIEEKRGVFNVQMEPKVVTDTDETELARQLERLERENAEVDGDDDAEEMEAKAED
UniProt Q7TSA6: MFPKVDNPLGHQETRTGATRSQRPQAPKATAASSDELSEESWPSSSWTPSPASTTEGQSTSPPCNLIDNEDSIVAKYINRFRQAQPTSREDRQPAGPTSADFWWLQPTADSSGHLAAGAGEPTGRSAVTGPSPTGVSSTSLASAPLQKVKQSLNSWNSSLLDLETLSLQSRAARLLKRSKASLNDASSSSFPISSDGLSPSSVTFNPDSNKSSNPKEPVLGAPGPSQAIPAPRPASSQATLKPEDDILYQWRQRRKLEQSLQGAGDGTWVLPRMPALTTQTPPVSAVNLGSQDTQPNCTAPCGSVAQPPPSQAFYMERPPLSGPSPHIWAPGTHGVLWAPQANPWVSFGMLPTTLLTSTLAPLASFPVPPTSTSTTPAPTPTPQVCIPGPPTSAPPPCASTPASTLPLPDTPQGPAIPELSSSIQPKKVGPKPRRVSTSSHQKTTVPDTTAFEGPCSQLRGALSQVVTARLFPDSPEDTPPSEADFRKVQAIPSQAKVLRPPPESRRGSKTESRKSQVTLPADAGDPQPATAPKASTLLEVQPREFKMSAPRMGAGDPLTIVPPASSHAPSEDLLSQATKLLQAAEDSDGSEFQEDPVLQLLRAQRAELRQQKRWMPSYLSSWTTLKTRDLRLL
UniProt Q7TMS5: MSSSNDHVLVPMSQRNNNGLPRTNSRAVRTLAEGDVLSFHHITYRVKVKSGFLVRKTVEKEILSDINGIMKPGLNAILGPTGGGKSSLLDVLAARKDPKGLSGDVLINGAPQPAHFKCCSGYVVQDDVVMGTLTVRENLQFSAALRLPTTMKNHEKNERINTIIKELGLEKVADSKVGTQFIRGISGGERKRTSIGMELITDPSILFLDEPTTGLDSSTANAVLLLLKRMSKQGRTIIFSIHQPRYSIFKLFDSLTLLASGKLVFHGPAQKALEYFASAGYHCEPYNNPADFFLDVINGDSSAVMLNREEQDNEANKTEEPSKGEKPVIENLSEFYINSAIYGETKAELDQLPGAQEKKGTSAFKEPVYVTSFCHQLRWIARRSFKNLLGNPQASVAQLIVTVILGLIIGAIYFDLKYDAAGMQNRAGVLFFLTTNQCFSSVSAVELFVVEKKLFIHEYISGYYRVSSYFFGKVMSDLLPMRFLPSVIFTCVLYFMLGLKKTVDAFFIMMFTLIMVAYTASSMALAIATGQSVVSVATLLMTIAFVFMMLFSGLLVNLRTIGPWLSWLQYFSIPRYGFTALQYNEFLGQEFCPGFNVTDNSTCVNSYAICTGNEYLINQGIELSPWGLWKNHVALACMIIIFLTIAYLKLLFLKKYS
UniProt Q80UG5: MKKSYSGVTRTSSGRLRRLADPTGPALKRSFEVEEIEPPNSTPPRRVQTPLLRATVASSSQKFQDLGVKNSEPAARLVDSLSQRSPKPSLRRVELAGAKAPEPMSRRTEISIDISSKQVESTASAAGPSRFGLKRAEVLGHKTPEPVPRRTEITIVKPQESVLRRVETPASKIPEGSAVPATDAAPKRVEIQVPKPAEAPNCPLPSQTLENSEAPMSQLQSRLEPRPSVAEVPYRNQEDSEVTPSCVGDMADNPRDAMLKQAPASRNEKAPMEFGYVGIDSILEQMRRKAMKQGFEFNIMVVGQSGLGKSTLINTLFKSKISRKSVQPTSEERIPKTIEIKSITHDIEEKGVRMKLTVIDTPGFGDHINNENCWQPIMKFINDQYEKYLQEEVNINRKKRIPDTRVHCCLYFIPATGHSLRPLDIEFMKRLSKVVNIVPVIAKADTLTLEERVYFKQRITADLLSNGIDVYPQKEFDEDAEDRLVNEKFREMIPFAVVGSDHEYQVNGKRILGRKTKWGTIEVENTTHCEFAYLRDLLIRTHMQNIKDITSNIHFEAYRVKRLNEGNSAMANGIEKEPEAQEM
UniProt Q6ZPY2: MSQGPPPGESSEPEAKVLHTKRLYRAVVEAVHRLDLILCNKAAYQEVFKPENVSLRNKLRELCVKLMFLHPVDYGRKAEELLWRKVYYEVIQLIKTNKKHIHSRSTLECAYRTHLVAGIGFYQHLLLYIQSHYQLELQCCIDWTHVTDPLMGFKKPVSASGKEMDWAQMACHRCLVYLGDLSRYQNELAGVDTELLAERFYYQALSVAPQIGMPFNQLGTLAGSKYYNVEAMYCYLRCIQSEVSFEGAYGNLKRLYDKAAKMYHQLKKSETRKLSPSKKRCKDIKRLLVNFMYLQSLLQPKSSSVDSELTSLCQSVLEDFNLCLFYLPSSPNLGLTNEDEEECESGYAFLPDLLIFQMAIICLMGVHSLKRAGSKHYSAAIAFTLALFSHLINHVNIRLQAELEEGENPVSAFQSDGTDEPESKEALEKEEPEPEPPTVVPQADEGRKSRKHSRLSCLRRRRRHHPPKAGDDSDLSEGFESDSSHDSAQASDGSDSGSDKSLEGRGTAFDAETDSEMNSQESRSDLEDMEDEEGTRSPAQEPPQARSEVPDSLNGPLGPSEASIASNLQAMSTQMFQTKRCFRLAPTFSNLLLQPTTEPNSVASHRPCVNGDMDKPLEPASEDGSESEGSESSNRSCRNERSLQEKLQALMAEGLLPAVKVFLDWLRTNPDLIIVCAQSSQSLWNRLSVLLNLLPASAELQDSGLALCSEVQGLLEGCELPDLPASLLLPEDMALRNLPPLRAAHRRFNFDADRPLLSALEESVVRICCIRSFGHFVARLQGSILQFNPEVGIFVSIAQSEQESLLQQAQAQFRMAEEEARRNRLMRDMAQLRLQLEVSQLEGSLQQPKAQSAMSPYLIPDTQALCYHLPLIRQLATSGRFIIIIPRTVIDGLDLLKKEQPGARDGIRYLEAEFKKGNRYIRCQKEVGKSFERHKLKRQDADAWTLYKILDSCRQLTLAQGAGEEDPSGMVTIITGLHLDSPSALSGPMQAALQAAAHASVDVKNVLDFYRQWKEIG
UniProt Q6ZQ03: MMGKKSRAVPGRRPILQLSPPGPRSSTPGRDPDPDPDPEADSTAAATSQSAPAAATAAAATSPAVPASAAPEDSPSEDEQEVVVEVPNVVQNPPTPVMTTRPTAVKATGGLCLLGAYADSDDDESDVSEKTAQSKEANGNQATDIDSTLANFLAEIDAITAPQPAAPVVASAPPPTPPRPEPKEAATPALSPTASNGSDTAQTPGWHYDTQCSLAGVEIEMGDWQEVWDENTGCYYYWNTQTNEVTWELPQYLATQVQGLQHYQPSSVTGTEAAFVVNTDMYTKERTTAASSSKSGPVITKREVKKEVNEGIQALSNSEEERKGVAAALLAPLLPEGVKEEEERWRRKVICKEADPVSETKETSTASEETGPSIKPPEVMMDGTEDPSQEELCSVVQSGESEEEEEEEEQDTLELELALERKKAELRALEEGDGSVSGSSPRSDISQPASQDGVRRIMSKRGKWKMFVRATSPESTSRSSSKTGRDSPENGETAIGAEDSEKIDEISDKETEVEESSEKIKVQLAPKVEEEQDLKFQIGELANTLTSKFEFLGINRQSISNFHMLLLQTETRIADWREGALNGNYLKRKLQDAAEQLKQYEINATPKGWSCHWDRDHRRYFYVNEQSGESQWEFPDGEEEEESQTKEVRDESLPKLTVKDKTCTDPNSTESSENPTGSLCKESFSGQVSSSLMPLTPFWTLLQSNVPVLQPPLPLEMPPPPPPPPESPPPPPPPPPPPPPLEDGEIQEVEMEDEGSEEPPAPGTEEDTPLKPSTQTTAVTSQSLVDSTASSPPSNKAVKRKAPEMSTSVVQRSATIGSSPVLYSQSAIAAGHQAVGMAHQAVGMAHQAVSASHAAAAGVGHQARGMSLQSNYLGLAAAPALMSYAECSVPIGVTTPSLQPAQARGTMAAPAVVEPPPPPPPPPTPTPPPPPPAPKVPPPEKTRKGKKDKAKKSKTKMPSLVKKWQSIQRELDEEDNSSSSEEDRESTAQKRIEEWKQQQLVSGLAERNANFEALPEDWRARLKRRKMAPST

| Target | log2 fold change |
| --- | --- |
| UniProt Q6ZWV7 (peptide sequence: YKPLDLR, peptide start residue: 78) | 0.141 |
| UniProt Q80UQ2 (peptide sequence: THVLASEAR, peptide start residue: 116) | -0.295 |
| UniProt Q80UZ0 (peptide sequence: SRPPFLPLPLTKPR, peptide start residue: 505) | 0.153 |
| UniProt Q80TN7 (peptide sequence: QNLEETMSSLR, peptide start residue: 273) | -0.428 |
| UniProt Q80TJ7 (peptide sequence: VASIETGLAAAAAK, peptide start residue: 921) | 0.171 |
| UniProt Q71B07 (peptide sequence: EDVKLEK, peptide start residue: 24) | -0.122 |
| UniProt Q6WKZ8 (peptide sequence: YFDSVQAK, peptide start residue: 1180) | 0.337 |
| UniProt Q7TT23 (peptide sequence: ELEQQEYR, peptide start residue: 1163) | -0.019 |
| UniProt Q6ZQL4 (peptide sequence: LGAMDLDRK, peptide start residue: 441) | 0.136 |
| UniProt Q6ZWX6 (peptide sequence: HVAEVLEYTKDEQLESLFQR, peptide start residue: 114) | -0.215 |
| UniProt Q791T5 (peptide sequence: GGAPAGVEAR, peptide start residue: 30) | -0.0915 |
| UniProt Q7TSA6 (peptide sequence: KSQVTLPADAGDPQPATAPK, peptide start residue: 515) | -0.952 |
| UniProt Q7TNG8 (peptide sequence: TEAITQDNGGSHFSWAK, peptide start residue: 319) | -0.133 |
| UniProt Q6XVG2 (peptide sequence: HFSLMTLR, peptide start residue: 125) | 0.21 |
| UniProt Q7TMV3 (peptide sequence: NQYCYGSR, peptide start residue: 703) | -0.401 |
| UniProt Q70IV5 (peptide sequence: AEVSTIHLQSPGRK, peptide start residue: 590) | -0.0851 |
| UniProt Q80U59 (peptide sequence: SILCSDSDSEVFHPR, peptide start residue: 1077) | -0.826 |
| UniProt Q6ZPJ0 (peptide sequence: IYDLSDSK, peptide start residue: 606) | -0.594 |
| UniProt Q7TPM1 (peptide sequence: RTQEEGKDWSGTAGGSR, peptide start residue: 426) | 0.604 |
| UniProt Q6ZPV2 (peptide sequence: DMGHDGIQEEILR, peptide start residue: 406) | -0.263 |
| UniProt Q7TMS5 (peptide sequence: SSLLDVLAAR, peptide start residue: 86) | -0.262 |
| UniProt Q80UG5 (peptide sequence: LADPTGPALKR, peptide start residue: 19) | 0.255 |
| UniProt Q6ZPT1 (peptide sequence: ESPLSAPSDHS, peptide start residue: 607) | 0.0453 |
| UniProt Q80TD3 (peptide sequence: LHLPADFCIMHLEDR, peptide start residue: 1038) | 0.359 |
| UniProt Q7TSV4 (peptide sequence: QLIAGGNKEELRK, peptide start residue: 45) | -0.565 |
| UniProt Q6ZPY2 (peptide sequence: NVLDFYR, peptide start residue: 1005) | -0.179 |
| UniProt Q80TL7 (peptide sequence: RYLLQPLGDFSR, peptide start residue: 1128) | -0.596 |
| UniProt Q6ZQ03 (peptide sequence: KEVNEGIQALSNSEEER, peptide start residue: 306) | -0.411 |
| UniProt Q7TQK0 (peptide sequence: LPLTNSDRPEK, peptide start residue: 483) | 0.38 |

Looked up one by one from above, 2 records:

| Target | log2 fold change |
| --- | --- |
| UniProt Q80TN7 (peptide sequence: QNLEETMSSLR, peptide start residue: 273) | -0.428 |
| UniProt Q7TPM1 (peptide sequence: RTQEEGKDWSGTAGGSR, peptide start residue: 426) | 0.604 |
